Measured values from paper doi:10.1101/2022.11.01.514535.
These are yes or no findings as the source states them, for the method shown. Binding seen in cells or lysates may run through a third protein. For some assays here: Tags and fused reporters may be left off the sequences shown.

What was measured:
[1] = target: T1, FBXL4-Flag (F-box/LRR-repeat protein 4) (UniProt Q9UKA2); assay: co-IP
T1 sequence: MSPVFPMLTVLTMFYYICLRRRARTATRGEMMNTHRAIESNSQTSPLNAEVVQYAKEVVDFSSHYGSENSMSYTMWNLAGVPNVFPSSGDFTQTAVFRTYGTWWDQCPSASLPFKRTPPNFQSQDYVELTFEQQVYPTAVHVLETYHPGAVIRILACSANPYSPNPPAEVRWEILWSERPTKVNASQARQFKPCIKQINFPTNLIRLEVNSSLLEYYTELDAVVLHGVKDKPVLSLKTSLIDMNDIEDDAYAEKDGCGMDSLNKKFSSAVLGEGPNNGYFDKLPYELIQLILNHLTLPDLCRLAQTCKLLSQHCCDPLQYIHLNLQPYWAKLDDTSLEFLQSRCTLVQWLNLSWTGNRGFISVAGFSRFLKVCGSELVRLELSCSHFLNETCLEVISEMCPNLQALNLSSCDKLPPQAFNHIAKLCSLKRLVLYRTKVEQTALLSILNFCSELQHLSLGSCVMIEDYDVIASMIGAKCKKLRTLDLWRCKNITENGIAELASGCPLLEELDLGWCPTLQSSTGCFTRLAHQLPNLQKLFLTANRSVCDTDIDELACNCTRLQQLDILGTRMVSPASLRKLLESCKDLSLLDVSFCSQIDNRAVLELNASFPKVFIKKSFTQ

FBXL3 = target: T2, FBXL3 (UniProt Q9UKT7); assay: co-IP
T2 sequence: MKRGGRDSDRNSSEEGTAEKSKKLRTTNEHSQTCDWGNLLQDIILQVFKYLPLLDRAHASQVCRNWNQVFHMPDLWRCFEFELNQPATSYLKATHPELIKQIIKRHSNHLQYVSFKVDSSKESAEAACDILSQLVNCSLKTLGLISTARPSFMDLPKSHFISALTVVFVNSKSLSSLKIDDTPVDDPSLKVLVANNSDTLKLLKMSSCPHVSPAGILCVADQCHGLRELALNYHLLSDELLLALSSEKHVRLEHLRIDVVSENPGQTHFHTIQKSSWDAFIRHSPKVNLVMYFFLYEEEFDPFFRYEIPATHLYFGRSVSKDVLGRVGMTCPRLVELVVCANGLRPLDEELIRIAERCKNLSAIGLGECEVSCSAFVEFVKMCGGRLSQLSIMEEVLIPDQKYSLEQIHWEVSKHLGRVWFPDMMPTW

With “mitochondrial ribosomal protein L45 (MRPL45), endogenous (human (endogenous in HEK and HeLa))” the binding [1] was “no binding” and the binding (FBXL3) was “no binding”.
